Our source for the binding values is PMC6017422.

By UniProt entry, the sequences of proteins in these tests, tags left out. Residues count along the entry.
UniProt Q9FJL3, residues 2-578: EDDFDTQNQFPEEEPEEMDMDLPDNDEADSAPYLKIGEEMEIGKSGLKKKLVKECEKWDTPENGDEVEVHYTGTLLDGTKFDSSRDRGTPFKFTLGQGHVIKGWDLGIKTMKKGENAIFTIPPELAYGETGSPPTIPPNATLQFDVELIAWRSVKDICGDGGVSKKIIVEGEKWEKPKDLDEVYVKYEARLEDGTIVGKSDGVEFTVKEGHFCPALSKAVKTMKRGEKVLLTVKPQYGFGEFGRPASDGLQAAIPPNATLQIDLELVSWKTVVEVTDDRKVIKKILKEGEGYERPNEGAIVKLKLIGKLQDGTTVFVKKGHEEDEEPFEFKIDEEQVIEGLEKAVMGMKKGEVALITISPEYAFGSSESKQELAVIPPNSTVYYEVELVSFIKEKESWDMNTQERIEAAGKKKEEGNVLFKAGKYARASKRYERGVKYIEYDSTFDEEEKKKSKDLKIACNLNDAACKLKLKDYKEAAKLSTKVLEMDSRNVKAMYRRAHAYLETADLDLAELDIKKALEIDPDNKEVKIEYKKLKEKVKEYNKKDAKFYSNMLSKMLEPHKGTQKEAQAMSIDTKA

This experiment concerns the target ROF2 immunophilin (AtFKBP65/ROF2) (A. thaliana) (UniProt Q9FJL3). The experiment in a line: two-hybrid; cotransformation of pGADT7 with the full-length partner and pGBKT7 with the immunophilin into yeast AH109; transformants selected on DDO (SD/Leu/Trp), interaction validated on QDO (Ade/His/Leu/Trp); cultures from OD600 = 0.2 diluted to 10^-3.

These are yes or no findings as the source states them, for the method shown. Some entries that bind do so weakly or less than the wild type.

B1: Putative protein phosphatase (At2g30020; AT2), full length (protein, UniProt O80871 1-396)
chain: MSCSVAVCNSPVFSPSSSLFCNKSSILSSPQESLSLTLSHRKPQTSSPSSPSTTVSSPKSPFRLRFQKPPSGFAPGPLSFGSESVSASSPPGGVLKRKRPTRLDIPIGVAGFVAPISSSAAVAATPREECREVEREGDGYSVYCKRGRREAMEDRFSAITNLHGDRKQAIFGVYDGHGGVKAAEFAAKNLDKNIVEEVVGKRDESEIAEAVKHGYLATDASFLKEEDVKGGSCCVTALVNEGNLVVSNAGDCRAVMSVGGVAKALSSDHRPSRDDERKRIETTGGYVDTFHGVWRIQGSLAVSRGIGDAQLKKWVIAEPETKISRIEHDHEFLILASDGLWDKVSNQEAVDIARPLCLGTEKPLLLAACKKLVDLSASRGSSDDISVMLIPLRQFI
Regarding B1, the binding result is listed as “binds”.

B2: Calcium-dependent lipid-binding domain-containing protein (At1g70790; AT1), full length (protein, UniProt Q9S7J9 1-185)
chain: MEDKPLGILRVHVKRGINLAIRDATTSDPYVVITLANQKLKTRVINNNCNPVWNEQLTLSIKDVNDPIRLTVFDKDRFSGDDKMGDAEIDFRPFLEAHQMELDFQKLPNGCAIKRIRPGRTNCLAEESSITWSNGKIMQEMILRLKNVECGEVELMLEWTDGPGCKGLGREGSKKTPWMPTKRLD
As for B2, the binding entry is “binds”.
